Ten targets from the supplement of paper PMC12819154, “High-throughput peptide-centric local stability assay extends protein–ligand identification to membrane proteins, tissues and bacteria” (Nature Structural & Molecular Biology, 2025) can be followed below.

The chains behind the UniProt entries cited, without tags or fusion partners. Where a name states a change or a piece, a line headed by the entry shows the natural chain unless it says otherwise.
UniProt Q9NRR8: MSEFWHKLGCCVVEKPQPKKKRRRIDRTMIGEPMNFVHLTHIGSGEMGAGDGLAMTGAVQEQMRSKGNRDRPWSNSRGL
UniProt Q9HD34: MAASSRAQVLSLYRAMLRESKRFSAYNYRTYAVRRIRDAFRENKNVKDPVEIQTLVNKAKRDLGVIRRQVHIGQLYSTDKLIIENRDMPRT
UniProt Q9NUA8: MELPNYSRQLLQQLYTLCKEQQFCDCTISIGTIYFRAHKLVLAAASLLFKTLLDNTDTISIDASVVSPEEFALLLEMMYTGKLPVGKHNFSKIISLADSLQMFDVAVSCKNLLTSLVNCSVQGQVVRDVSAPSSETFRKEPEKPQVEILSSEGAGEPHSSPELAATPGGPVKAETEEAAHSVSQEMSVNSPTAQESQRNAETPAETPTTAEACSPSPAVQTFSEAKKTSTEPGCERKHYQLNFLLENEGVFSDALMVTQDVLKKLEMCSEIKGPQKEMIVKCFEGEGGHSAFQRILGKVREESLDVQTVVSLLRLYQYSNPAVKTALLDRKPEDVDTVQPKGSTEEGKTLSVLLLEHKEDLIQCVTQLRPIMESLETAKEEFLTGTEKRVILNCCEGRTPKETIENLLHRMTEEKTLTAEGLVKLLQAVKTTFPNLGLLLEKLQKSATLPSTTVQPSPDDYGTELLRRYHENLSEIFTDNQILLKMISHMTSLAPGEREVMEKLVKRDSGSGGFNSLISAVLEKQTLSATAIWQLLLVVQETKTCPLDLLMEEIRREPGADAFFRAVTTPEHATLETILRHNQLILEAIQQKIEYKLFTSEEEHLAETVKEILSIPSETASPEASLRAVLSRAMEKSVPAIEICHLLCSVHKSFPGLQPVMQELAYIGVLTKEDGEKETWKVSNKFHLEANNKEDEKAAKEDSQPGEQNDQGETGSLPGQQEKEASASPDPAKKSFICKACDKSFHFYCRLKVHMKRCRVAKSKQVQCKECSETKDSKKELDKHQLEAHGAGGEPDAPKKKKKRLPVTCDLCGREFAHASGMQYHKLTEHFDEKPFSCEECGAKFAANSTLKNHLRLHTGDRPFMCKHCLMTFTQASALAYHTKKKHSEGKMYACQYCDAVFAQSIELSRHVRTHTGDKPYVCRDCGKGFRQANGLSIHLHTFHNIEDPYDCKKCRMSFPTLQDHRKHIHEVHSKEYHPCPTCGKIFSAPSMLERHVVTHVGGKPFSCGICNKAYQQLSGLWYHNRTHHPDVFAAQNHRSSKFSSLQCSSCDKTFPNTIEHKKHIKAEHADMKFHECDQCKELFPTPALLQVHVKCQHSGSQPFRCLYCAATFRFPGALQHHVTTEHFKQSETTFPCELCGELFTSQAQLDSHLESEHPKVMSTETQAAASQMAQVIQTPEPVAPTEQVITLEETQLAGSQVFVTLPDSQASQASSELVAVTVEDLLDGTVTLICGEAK
UniProt Q9HCL3: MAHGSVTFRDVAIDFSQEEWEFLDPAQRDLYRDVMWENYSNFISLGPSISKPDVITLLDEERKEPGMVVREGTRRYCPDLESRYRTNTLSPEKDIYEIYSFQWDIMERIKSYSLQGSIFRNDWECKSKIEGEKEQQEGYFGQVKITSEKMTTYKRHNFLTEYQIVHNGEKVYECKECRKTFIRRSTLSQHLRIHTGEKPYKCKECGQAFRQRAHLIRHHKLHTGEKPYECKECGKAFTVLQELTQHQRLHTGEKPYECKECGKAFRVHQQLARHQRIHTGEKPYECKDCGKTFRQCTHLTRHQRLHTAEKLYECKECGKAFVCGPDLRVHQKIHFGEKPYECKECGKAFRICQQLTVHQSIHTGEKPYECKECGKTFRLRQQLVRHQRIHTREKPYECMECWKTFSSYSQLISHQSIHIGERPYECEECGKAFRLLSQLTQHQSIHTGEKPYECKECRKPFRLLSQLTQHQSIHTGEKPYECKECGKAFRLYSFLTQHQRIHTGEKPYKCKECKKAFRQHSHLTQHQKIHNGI
UniProt Q9NR12, whole entry: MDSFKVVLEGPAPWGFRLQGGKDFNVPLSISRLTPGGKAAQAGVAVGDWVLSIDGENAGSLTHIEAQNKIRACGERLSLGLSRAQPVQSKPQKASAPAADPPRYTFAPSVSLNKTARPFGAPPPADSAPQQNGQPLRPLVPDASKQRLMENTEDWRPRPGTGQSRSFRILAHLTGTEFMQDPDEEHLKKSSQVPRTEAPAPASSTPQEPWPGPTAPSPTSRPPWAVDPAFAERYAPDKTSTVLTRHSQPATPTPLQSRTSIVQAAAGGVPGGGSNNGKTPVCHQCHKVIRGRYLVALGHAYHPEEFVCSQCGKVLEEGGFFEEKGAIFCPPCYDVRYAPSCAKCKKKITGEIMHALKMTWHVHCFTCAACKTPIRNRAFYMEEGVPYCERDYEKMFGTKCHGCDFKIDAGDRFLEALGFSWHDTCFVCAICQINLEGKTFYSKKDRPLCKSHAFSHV
UniProt Q9NQS7, whole entry: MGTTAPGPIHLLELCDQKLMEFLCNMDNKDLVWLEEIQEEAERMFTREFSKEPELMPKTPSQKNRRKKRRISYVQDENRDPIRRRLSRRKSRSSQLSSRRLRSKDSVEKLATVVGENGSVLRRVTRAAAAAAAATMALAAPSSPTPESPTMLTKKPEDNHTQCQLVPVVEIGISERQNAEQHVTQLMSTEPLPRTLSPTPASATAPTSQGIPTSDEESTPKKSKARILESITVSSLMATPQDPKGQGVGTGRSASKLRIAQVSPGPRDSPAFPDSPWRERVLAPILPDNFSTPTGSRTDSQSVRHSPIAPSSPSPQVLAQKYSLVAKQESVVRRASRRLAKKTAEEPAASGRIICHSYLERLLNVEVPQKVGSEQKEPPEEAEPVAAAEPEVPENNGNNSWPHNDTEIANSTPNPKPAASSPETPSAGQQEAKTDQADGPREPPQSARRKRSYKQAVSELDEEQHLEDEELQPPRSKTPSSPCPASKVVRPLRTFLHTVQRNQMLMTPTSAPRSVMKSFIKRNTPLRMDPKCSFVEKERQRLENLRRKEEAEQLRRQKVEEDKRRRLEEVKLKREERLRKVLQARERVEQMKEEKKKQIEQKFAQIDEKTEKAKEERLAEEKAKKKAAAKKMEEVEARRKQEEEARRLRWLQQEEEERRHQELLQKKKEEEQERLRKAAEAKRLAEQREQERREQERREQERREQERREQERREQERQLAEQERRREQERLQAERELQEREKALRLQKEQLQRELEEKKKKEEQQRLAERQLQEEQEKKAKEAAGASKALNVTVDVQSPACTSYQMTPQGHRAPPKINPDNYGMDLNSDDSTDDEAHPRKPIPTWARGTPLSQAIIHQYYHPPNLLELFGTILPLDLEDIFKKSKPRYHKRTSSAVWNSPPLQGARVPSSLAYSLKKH
UniProt Q9NVP1: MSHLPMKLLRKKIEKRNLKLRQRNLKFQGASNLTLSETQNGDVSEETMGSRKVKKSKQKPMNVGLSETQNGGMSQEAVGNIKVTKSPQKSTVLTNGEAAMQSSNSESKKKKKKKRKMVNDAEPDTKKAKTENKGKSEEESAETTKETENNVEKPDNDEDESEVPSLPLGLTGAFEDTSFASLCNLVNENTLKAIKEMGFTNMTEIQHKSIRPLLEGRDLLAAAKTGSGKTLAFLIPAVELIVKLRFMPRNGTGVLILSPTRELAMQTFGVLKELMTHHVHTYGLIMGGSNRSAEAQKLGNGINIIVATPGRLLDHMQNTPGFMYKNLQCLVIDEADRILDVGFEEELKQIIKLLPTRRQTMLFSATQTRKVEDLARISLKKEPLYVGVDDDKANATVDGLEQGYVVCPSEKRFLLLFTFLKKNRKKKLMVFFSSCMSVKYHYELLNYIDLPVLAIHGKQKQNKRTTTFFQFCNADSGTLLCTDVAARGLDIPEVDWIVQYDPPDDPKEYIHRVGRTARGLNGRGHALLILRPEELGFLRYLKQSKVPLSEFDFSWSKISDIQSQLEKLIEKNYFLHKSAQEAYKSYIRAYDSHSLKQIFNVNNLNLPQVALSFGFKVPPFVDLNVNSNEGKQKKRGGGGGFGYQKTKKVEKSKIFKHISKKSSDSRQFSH
UniProt Q9NQ89: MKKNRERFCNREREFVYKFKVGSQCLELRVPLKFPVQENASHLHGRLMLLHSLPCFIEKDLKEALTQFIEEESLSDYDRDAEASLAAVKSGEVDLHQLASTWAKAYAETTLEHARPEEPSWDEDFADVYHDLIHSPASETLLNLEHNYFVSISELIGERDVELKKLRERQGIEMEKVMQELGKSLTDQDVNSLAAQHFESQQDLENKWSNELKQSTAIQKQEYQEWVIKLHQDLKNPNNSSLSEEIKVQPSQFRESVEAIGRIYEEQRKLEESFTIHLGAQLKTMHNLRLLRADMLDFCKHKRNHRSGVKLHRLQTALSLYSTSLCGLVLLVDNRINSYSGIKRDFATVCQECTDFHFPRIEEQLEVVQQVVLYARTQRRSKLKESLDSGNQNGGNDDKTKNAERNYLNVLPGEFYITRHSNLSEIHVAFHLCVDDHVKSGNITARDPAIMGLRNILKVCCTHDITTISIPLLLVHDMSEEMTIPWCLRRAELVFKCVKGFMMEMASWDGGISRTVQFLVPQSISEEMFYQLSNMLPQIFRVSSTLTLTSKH
UniProt Q9NPJ8: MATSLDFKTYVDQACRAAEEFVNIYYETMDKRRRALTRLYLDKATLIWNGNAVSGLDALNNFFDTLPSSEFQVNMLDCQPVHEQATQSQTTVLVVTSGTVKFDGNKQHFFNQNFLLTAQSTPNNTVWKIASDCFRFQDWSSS
UniProt Q9NQZ6: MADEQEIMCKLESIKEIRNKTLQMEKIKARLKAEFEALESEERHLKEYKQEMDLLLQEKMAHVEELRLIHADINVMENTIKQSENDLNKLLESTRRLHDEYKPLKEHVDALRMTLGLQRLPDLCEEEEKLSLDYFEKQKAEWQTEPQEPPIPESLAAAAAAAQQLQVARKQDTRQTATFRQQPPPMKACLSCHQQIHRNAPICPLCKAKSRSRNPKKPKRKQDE

Some of the results follow. Most entries show no effect beyond the scatter of the controls.

Compound in this assay: Cc1nc(Nc2ncc(C(=O)Nc3c(C)cccc3Cl)s2)cc(N2CCN(CCO)CC2)n1 [dasatinib]
Description: log2 fold change of tryptic peptide abundance, ligand vs vehicle (limited proteolysis) (log2 ratio); higher = more trypsin-susceptible (destabilized). The settings on record: ligand concentration: 5 uM; sample: K562 cleared lysate.
Consider “CDC42SE1 (peptide sequence: LGCCVVEKPQPK, peptide start residue: 8) (UniProt Q9NRR8)”, for which the log2 fold change is 0.245.

With “LYRM4 (peptide sequence: QVHIGQLYSTDKLIIENR, peptide start residue: 69) (UniProt Q9HD34)”, the log2 fold change is 0.107. As for “ZBTB40 (peptide sequence: DVSAPSSETFR, peptide start residue: 128) (UniProt Q9NUA8)”, the figure is 0.348; as for “UniProt Q9HCL3 (peptide sequence: LHTGEKPYECKECGK, peptide start residue: 331)”, -0.0613. As for “PDLIM7 (peptide sequence: KKITGEIMHALK, peptide start residue: 346) (UniProt Q9NR12)”, the figure is 0.573. For “INCENP (peptide sequence: KPEDNHTQCQLVPVVEIGISER, peptide start residue: 155) (UniProt Q9NQS7)” the value was 0.331; for “DDX18 (peptide sequence: ISDIQSQLEK, peptide start residue: 558) (UniProt Q9NVP1)”, 0.0948.

Turning to “C12orf4 (peptide sequence: ESLDSGNQNGGNDDKTK, peptide start residue: 385) (UniProt Q9NQ89)”, the log2 fold change was -0.114.

“NXT2 (peptide sequence: TYVDQACR, peptide start residue: 9) (UniProt Q9NPJ8)”: the log2 fold change is -0.00833. For “ZC4H2 (peptide sequence: MAHVEELR, peptide start residue: 60) (UniProt Q9NQZ6)” the value was 0.00763.
